Data on 1 substance can be found in publication PMC11176168.

The chains behind the UniProt entries cited, without tags or fusion partners. Where a name states a change or a piece, a line headed by the entry shows the natural chain unless it says otherwise. Residues count along the entry.
UniProt Q6UX06, residues 21-510: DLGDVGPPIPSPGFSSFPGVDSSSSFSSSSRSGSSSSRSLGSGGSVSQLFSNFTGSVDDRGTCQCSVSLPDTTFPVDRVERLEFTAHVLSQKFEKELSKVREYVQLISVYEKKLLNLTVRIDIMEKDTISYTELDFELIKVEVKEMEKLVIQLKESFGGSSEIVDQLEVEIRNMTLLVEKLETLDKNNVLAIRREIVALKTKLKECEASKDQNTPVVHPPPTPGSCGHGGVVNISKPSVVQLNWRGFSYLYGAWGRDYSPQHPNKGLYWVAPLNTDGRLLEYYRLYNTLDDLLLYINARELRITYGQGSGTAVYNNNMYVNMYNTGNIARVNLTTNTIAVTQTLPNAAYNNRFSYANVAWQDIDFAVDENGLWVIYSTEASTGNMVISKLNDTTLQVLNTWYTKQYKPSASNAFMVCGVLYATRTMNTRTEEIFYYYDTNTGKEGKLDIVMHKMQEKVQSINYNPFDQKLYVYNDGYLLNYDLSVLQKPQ
UniProt P02750: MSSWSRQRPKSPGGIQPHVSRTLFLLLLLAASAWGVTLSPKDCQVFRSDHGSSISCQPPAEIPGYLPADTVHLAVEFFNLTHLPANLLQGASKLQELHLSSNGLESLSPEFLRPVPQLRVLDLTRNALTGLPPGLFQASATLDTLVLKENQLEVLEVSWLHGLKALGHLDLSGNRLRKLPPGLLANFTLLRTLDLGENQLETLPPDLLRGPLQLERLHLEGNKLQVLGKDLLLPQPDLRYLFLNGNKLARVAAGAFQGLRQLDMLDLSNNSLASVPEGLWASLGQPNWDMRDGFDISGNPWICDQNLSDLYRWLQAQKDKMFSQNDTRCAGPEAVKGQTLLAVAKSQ

Results are given in words; binding and its absence hold for the method and conditions named. In cells and extracts the contact can be indirect.

The assay concerns the target Olfactomedin 4 (OLFM4), full-length (UniProt Q6UX06). As to the kind of experiment: co-IP; U266 cells transfected with HA- or Flag-tagged expression plasmids for 48 h; lysate (1 mg) with anti-HA or anti-Flag antibody (10 μg) and protein A/G magnetic beads overnight at 4 °C, four washes with lysis buffer, Western blot; for LRG1 and OLFM4 also with cells treated with TGF-β. (Immunoblotting shows a protein as a band on a membrane.)

“LRG1Δ2 (1–12, 264–310 aa) (from UniProt P02750) (domain or fragment)”: the binding result is reported as “no binding”.
